## Primary screen of a compound library

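Whole-cell assay for inhibitors of Mycobacterium tuberculosis growth, labelled Cornell in the record; the read-out is not stated. The concentration is filed as 10 mM, unlikely as a test dose, so the dose is not known. Higher means stronger inhibition (inferred from two other growth screens of the library). Size under these conditions: about 53,000 compounds, about 900 of them at 50% or above in at least one test.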

Each number is a percent effect as filed. How 0% and 100% were set is not recorded. Most values in the screen are low, and negative values occur. The compounds are a random part of those screened.

O=C(c1ccc(-n2cnnc2)cc1Cl)N1CCCC(O)(CO)CC1 (stereo unspecified) read -12.1%. Result for COCCN(C)C(=O)c1ccc2onc(-c3coc(C)n3)c2c1 was 13.41%. Cc1nn(C)c(Cl)c1C1CCCN1CC(=O)NC1CCCC1 (stereo unspecified) gave 13.48%. Cl.Cl.O[C@@H]1C[C@@](CNCc2cccc(Cl)c2)(COc2cccnc2)C[C@@H]1O gave 19.26%.

For CCc1cnc(CNc2cccc3c2CCN(S(=O)(=O)CC)C3)o1 the result was 35.44%. Result for Cc1ccccc1CNC(Cn1cncn1)c1ccccc1 (stereo unspecified) was -3.858%. Result for CN1C(=O)CCCC12CCCN(Cc1cccs1)C2.O=C(O)C(F)(F)F (stereo unspecified) was 15.82%. COc1ccc(COCC(O)CN(C)c2ccc(C)cc2C)cc1 (stereo unspecified) read 28.78%.

COCc1nnc(C(=O)N2CC(N3CCCCC3)C2)o1 read 10.13%. For CC(Nc1ncnc2c1CCNCC2)c1nc2c(s1)CCCC2 (stereo unspecified) the result was 10.39%. With O=S(=O)(NCCSc1nncn1C1CC1)c1ccccc1 the screen gave -11.3%. COCC(=O)NCc1cc(=O)n2c(n1)CN(Cc1nccs1)CCC2 read -1.746%.

CCc1ncnc(N2CCCC(c3cc(C(N)=O)[nH]n3)C2)c1F (stereo unspecified) gave -26.73%. CC(=O)N[C@@H]1CN(S(=O)(=O)c2ccc(Cl)cc2)C[C@H]1O gave -28.28%. With O=C1COC2(CCN(C(=O)c3ccoc3)CC2)CN1Cc1cccnc1 the screen gave 4.42%. O=C(NCCc1cccnc1)N1CCCC1c1ccsc1 (stereo unspecified) read 10.66%.

Cc1occc1C(=O)Nc1ccnc(OC2CCOC2)c1 (stereo unspecified) gave 6.262%. Result for COc1ccc(OC)c(S(=O)(=O)NC(=O)C(C)OC)c1 (stereo unspecified) was 23.92%. For COCC(=O)N1CCCCC1c1nc(CN(C)C(C)=O)cc(N(C)C)n1 (stereo unspecified) the result was -40.24%. c1cc2nc(C3CCNCC3)nn2cc1NC1CCC1 gave -30.53%.

With Cc1cccc(CN2Cc3nccn3CC(CN3CCOCC3)C2)c1.O=C(O)C(F)(F)F.O=C(O)C(F)(F)F (stereo unspecified) the screen gave -80.96%. With O=C(NCCNc1ccccn1)NC1CCCC1 the screen gave -8.1%. COCC(=O)N1CCC2(CCN(c3cnn(C)c3)C2=O)C1 (stereo unspecified) gave -39.37%. For CCN(CC(=O)N(C)C)C(=O)c1cc(-c2cccc(Cl)c2)no1 the result was -10.43%.

CCCS(=O)(=O)N1CCN(CCOC)c2nc(C)ccc2C1.O=C(O)C(F)(F)F gave -56.71%. With COc1c(CNCCC(=O)Nc2cccc(C)n2)c(C)nn1C the screen gave 6.046%. With O=C(O)CC1COCCN1CCCc1ccccc1 (stereo unspecified) the screen gave -3.849%. Result for CC(C)n1[nH]c(=O)c2c1NC(=O)CC2c1cccc(O)c1 (stereo unspecified) was 3.186%.

Result for CNc1cc(C2CCCN2C(=O)CCc2ccccc2F)ccn1 (stereo unspecified) was -5.155%. For CN(C)CC(=O)N1CCC2(CC1)CN(c1ncccn1)CCO2.O=C(O)C(F)(F)F the result was 1.77%. O=S(=O)(NCCCn1cccn1)c1ccc2c(c1)CCC2 read 2.85%. For CN(C)CC1(O)CCN(S(=O)(=O)c2cccc(F)c2)C1 (stereo unspecified) the result was -61.95%.

O=C(c1cccnc1O)N1CCC(COc2ccccc2)CC1 gave 3.261%. O=S(=O)(Cc1ccccc1Cl)NC(CO)c1ccco1 (stereo unspecified) gave -21.81%. With CCOCCCNC(=O)C(C)n1cc(Br)cn1 (stereo unspecified) the screen gave 7.125%. CCc1ccc2ncn(Cc3ncc[nH]3)c(=O)c2c1 gave -13.51%.

Result for Cc1nc(CN2C(=O)CCC23CCN(c2ncccc2C)CC3)cs1 was -19.88%. Result for Cn1ccnc1SCCNc1nccc(C(F)(F)F)n1 was -3.283%. Result for O=C(c1cccnc1)N1CCC(c2nc(O)cc(-c3ccncc3)n2)C1 (stereo unspecified) was -8.098%. For CCCc1cc(=O)[nH]c(-c2cccc(CN3CCCCCC3)c2)n1 the result was 11.6%.

COc1ccc(C2Nc3ccccc3NC3=C2C(=O)NC3)cc1OC (stereo unspecified) gave -38.12%. For Cc1nc(-c2ccccc2)sc1CNC1CCc2ncnn2C1 (stereo unspecified) the result was -22.79%. CCOCC1CN(CCN2CCCCC2)Cc2cnn(C)c21.O=C(O)C(F)(F)F.O=C(O)C(F)(F)F.O=C(O)C(F)(F)F (stereo unspecified) gave -8.362%. CCn1cnnc1CNC(=O)N(C)Cc1c(F)cccc1Cl read -10.73%.

With Cc1nnc(SCCNC(=O)CC2CCc3ccccc32)s1 (stereo unspecified) the screen gave 4.224%.

4 of the entries, repeated:

{"compound": "CCc1cnc(CNc2cccc3c2CCN(S(=O)(=O)CC)C3)o1", "percent effect": 35.44}
{"compound": "CC(C)n1[nH]c(=O)c2c1NC(=O)CC2c1cccc(O)c1", "stereo": "stereo unspecified", "percent effect": 3.186}
{"compound": "Cc1occc1C(=O)Nc1ccnc(OC2CCOC2)c1", "stereo": "stereo unspecified", "percent effect": 6.262}
{"compound": "Cc1nn(C)c(Cl)c1C1CCCN1CC(=O)NC1CCCC1", "stereo": "stereo unspecified", "percent effect": 13.48}

Measurements from “University of Dundee, Small-Polar-MMV Screening Library” (2021), ChEMBL document CHEMBL3988442.